Source: patent US20260079169A1, “VOLATILE ORGANIC COMPOUNDS AS MARKERS FOR CELLULAR COMMUNICATION” (Technion Research and Development Foundation Limited, priority 2020, published 2026)
Some results come without the dose or concentration used.

How the values were obtained:
[1] = test system: different-cell pairs of BEAS-2B, A549, H1299, H1975 without physical contact under a mutual headspace; assay: VOCs headspace analysis (ITEX GC-MS) of different-cell pair co-culture headspace groups (Format-3), bulk cell samples; type: cell-based, human; conditions: bulk 1 × 10^4 cell; for VOC area under curve (AUC) normalized by STD AUC, B + C: A549 + H1299; for VOC area under curve (AUC) normalized by STD AUC, B + D: A549 + H1975; for VOC area under curve (AUC) normalized by STD AUC, A + B: BEAS-2B + A549; for VOC area under curve (AUC) normalized by STD AUC, A + C: BEAS-2B + H1299; for VOC area under curve (AUC) normalized by STD AUC, A + D: BEAS-2B + H1975; for VOC area under curve (AUC) normalized by STD AUC, C + D: H1299 + H1975
[2] = test system: A549, H1299, H1975 human lung cancer lines and BEAS-2B normal cell line, each cultured alone; assay: VOCs headspace analysis (ITEX GC-MS) of mono-culture groups (Format-1), bulk cell samples 1×10^4 cells; type: cell-based; conditions: bulk 1 × 10^4 cell; for VOC area under curve (AUC) normalized by STD AUC, A: A: BEAS-2B mono-culture headspace; for VOC area under curve (AUC) normalized by STD AUC, B: B: A549 mono-culture headspace; for VOC area under curve (AUC) normalized by STD AUC, C: C: H1299 mono-culture headspace; for VOC area under curve (AUC) normalized by STD AUC, D: D: H1975 mono-culture headspace

Compound | VOC level in headspace, area under curve (AUC) normalized by STD AUC ([1]; A + B (BEAS-2B + A549)) | VOC level in headspace, area under curve (AUC) normalized by STD AUC ([1]; A + C (BEAS-2B + H1299)) | VOC level in headspace, area under curve (AUC) normalized by STD AUC ([1]; A + D (BEAS-2B + H1975)) | VOC level in headspace, area under curve (AUC) normalized by STD AUC ([1]; B + C (A549 + H1299)) | VOC level in headspace, area under curve (AUC) normalized by STD AUC ([1]; B + D (A549 + H1975)) | VOC level in headspace, area under curve (AUC) normalized by STD AUC ([1]; C + D (H1299 + H1975)) | VOC level in headspace, area under curve (AUC) normalized by STD AUC ([2]; A (BEAS-2B) mono-culture) | VOC level in headspace, area under curve (AUC) normalized by STD AUC ([2]; B (A549) mono-culture) | VOC level in headspace, area under curve (AUC) normalized by STD AUC ([2]; C (H1299) mono-culture) | VOC level in headspace, area under curve (AUC) normalized by STD AUC ([2]; D (H1975) mono-culture) | VOC area under curve (AUC) normalized by STD AUC, B + C [1] | VOC area under curve (AUC) normalized by STD AUC, B + D [1] | VOC area under curve (AUC) normalized by STD AUC, A + B [1] | VOC area under curve (AUC) normalized by STD AUC, A + C [1] | VOC area under curve (AUC) normalized by STD AUC, A + D [1] | VOC area under curve (AUC) normalized by STD AUC, C + D [1] | VOC area under curve (AUC) normalized by STD AUC, A [2] | VOC area under curve (AUC) normalized by STD AUC, B [2] | VOC area under curve (AUC) normalized by STD AUC, C [2] | VOC area under curve (AUC) normalized by STD AUC, D [2]
CCCC(C)=O [VOC92] | 0 | 4.886 | 0 | 1.289 | 0 | 2.295 | 0 | 0 | 5.421 | 0 | – | – | – | – | – | – | – | – | – | –
CCCCC(C)=O [VOC93] | 6.612 | 0 | 6.874 | 3.654 | 8.676 | 1.978 | 0 | 7.399 | 0 | 8.535 | – | – | – | – | – | – | – | – | – | –
CCC(C)=O [VOC94] | 8.48 | 2.85 | 1.913 | 2.528 | 2.08 | 0 | 3.925 | 8.126 | 0 | 0 | – | – | – | – | – | – | – | – | – | –
CC(C)CO [VOC95] | 5.494 | 0.3614 | 0 | 0 | 7.822 | 0.462 | 4.954 | 0 | 0 | 6.944 | – | – | – | – | – | – | – | – | – | –
CCCCCCC(C)=O [VOC96] | 0 | 5.283 | 0 | 1.514 | 0 | 2.778 | 0 | 0 | 7.2483 | 0 | – | – | – | – | – | – | – | – | – | –
CC(=O)CCC(C)=O [VOC97] | – | – | – | – | – | – | – | – | – | – | 6.764 | 3.462 | 3.868 | 0 | 0 | 0 | 0 | 5.359 | 4.1686 | 0
CCCCO [VOC98] | – | – | – | – | – | – | – | – | – | – | 0 | 5.359 | 0 | 0 | 4.894 | 5.866 | 0 | 0 | 0 | 6.103
